Experimental findings from PubChem BioAssay AID328 (DTP/NCI, 2004) are described below.

The list shows only some results of the screen, not a fair sample: it gathers tests that were run many times, whatever their T/C, doses with no T/C, and many T/C values between a quarter and a half above the control. Other doses and runs of a compound stand elsewhere. T/C is the treated group as % of the vehicle group. Some doses have a count of surviving animals in place of a T/C: the source holds a T/C of zero for them, seemingly a mark for toxic or unscored doses. Some doses without a T/C left all or most animals alive at the check, yet need not have been tolerated: the source hardly ever lists a survival T/C far under the control, and the zero likely stands for such cases as well. Survivors were counted at the toxicity check, usually on the fifth day, unless a day is given; later deaths do not show. Schedule codes are those of the source, taken here to give the interval after Q, in days (D) or hours (H), and the number of doses after X. Some doses were run more than once; their values stand side by side, smallest first. For survival time, this PubChem deposit counts one and a half times the control or more as active, and values a quarter to a half above the control carry no call in these data; other NCI protocols may use other cut-offs. Some T/C values carry the count of animals alive at the toxicity check (mostly the fifth day); where none is given, no animal had died by that day.

For this experiment, the system named is BDF1 mice, P388 leukemia ip, median survival T/C. In words: NCI In Vivo Anticancer Drug Screen. Data for tumor model P388 Leukemia (intraperitoneal) in B6D2F1 (BDF1) mice. The following applies: T/C endpoint: median survival time, higher T/C = longer survival. Summed up: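 Each value expresses how treatment altered survival: treated-mouse outcome over vehicle-mouse outcome, both groups bearing the transplanted tumour.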

[1] abbreviates: dose: 25.0 mg/kg/injection, schedule: Q01DX009 (ip), vehicle: saline.
[2] abbreviates: dose: 50.0 mg/kg/injection, schedule: Q01DX009 (ip), vehicle: saline.
[3] abbreviates: dose: 400.0 mg/kg/injection, schedule: Q01DX009 (ip), vehicle: Klucel (hydroxypropylcellulose) (HPC).
Where [4] appears, read: dose: 100.0 mg/kg/injection, schedule: Q01DX009 (ip), vehicle: saline with Tween-80.
[5] abbreviates: dose: 100.0 mg/kg/injection, schedule: Q01DX009 (ip), vehicle: Klucel (hydroxypropylcellulose) (HPC).
Where [6] appears, read: dose: 400.0 mg/kg/injection, schedule: Q01DX009 (ip), vehicle: saline.

In the case of `FC(F)(F)c1nc2nc(Cl)c(Cl)nc2[nH]1`, the T/C is 125 and 136 % of control (dose: 40.0 mg/kg/injection, schedule: Q01DX009 (ip), vehicle: other); 136 % of control (dose: 66.0 mg/kg/injection, schedule: Q04DX003 (ip), vehicle: other). The survivor count is, setting by setting: (dose: 60.0 mg/kg/injection, schedule: Q01DX009 (ip), vehicle: other) 4 of 6; (dose: 80.0 mg/kg/injection, schedule: Q01DX009 (ip), vehicle: other) 0 of 6; (dose: 150.0 mg/kg/injection, schedule: Q04DX003 (ip), vehicle: other) 2 of 6.
Consider `NC(=Nc1ccc(Cl)cc1)/N=C(/N)N1CCN(/C(N)=N/C(N)=Nc2ccc(Cl)cc2)CC1`, for which the T/C is, setting by setting: under setting [1], 133 and 140 % of control; (dose: 200.0 mg/kg/injection, schedule: Q04DX003 (ip), vehicle: saline) 130 % of control. Besides, the survivor count by setting is: under setting [2], 6 of 6; (dose: 225.0 mg/kg/injection, schedule: Q01DX001 (ip), vehicle: Klucel (hydroxypropylcellulose) (HPC)) 2 of 6; (dose: 335.0 mg/kg/injection, schedule: Q01DX001 (ip), vehicle: Klucel (hydroxypropylcellulose) (HPC)) 0 of 6.
`CN(N=O)C(=O)NC(N)=O`: the T/C reads like this: (dose: 7.0 mg/kg/injection, schedule: Q01DX009 (ip), vehicle: Klucel (hydroxypropylcellulose) (HPC)) 136 % of control; (dose: 8.2 mg/kg/injection, schedule: Q01DX009 (ip), vehicle: saline) 147 % of control; (dose: 11.0 mg/kg/injection, schedule: Q01DX009 (ip), vehicle: Klucel (hydroxypropylcellulose) (HPC)) 136 % of control; (dose: 25.0 mg/kg/injection, schedule: Q01DX009 (ip), vehicle: Klucel (hydroxypropylcellulose) (HPC)) 127 % of control; under setting [1], 148 % of control; (dose: 25.0 mg/kg/injection, schedule: Q04DX003 (ip), vehicle: Klucel (hydroxypropylcellulose) (HPC)) 145 % of control. Further, the T/C (dose: 33.0 mg/kg/injection, schedule: Q04DX003 (ip), vehicle: Klucel (hydroxypropylcellulose) (HPC)) was 131 % of control. In addition, the survivor count is recorded as 6 of 6 (dose: 50.0 mg/kg/injection, schedule: Q01DX009 (ip), vehicle: Klucel (hydroxypropylcellulose) (HPC)); 6 of 6 (dose: 100.0 mg/kg/injection, schedule: Q04DX003 (ip), vehicle: Klucel (hydroxypropylcellulose) (HPC)); 4 of 6 (dose: 200.0 mg/kg/injection, schedule: Q04DX003 (ip), vehicle: Klucel (hydroxypropylcellulose) (HPC)); 1 of 6 (dose: 400.0 mg/kg/injection, schedule: Q04DX003 (ip), vehicle: Klucel (hydroxypropylcellulose) (HPC)).
As to `CCCCCCCCCCCCNC(=O)CCC(=O)O`, the survivor count (dose: 150.0 mg/kg/injection, schedule: Q01DX009 (ip), vehicle: saline with Tween-80) was 2 of 7.
For the compound `COc1ccc2c(C#N)cc3c4ccccc4ncc3c2c1`, the survivor count (dose: 200.0 mg/kg/injection, schedule: Q01DX009 (ip), vehicle: distilled water + Tween-80) is on record as 3 of 6.
On to `CCN(CC)CCNc1ccc(C)c2sc3ccccc3c(=O)c12`, for which the T/C runs as follows: (dose: 25.0 mg/kg/injection, schedule: Q01DX010 (ip), vehicle: saline) 127 and 140 % of control; under setting [2], 145 % of control; (dose: 100.0 mg/kg/injection, schedule: Q01DX010 (ip), vehicle: saline) 140 % of control. For the same compound, the survivor count runs as follows: (dose: 200.0 mg/kg/injection, schedule: Q01DX009 (ip), vehicle: saline) 2 of 6; (dose: 200.0 mg/kg/injection, schedule: Q01DX010 (ip), vehicle: saline) 6 of 6.
`OCCN1CCN(CC/C=C2\c3ccccc3Sc3ccc(Cl)cc32)CC1`: the survivor count reads like this: under setting [1], 6 of 6; under setting [2], 3 of 6.
Take `COc1ccccc1NC(=O)CSC(N)=O`: under setting [3], the T/C is 130 % of control; the survivor count is 3 of 6 and 6 of 6.
In the case of `CCN=C1N[N+]2=CCCCC2S1` (stereo not drawn), the T/C (dose: 70.0 mg/kg/injection, schedule: Q01DX009 (ip), vehicle: saline) is 133 % of control.
In the case of `CCOC(=O)C(CNc1ccccc1)C(=O)OCC`, the survivor count by setting is: (dose: 50.0 mg/kg/injection, schedule: Q01DX009 (ip), vehicle: saline with Tween-80) 6 of 6; under setting [4], 6 of 6.
In the case of `COc1cccc(C2N=NC3=C(CCCC3)N2O)c1O` (stereo not drawn), the survivor count under setting [5] was 6 of 6.
Consider `O=C(C/C(=N\C(=S)Nc1cc(C(F)(F)F)ccc1Cl)NO)N1CCCC1`, for which the T/C under setting [4] was 131 % of control. The survivor count (dose: 200.0 mg/kg/injection, schedule: Q01DX009 (ip), vehicle: saline with Tween-80) was 6 of 6.
As for `Cn1cc(N)c2ccccc2c1=O`, the survivor count (dose: 200.0 mg/kg/injection, schedule: Q01DX005 (ip), vehicle: suspension in saline) was 0 of 5.
As for `C/C(CCCCl)=N/N=C(N)N`, the survivor count runs as follows: (dose: 28.12 mg/kg/injection, schedule: Q01DX001 (ip), vehicle: saline) 6 of 6; (dose: 110.0 mg/kg/injection, schedule: Q01DX009 (ip), vehicle: saline) 2 of 6; (dose: 110.0 mg/kg/injection, schedule: Q04DX003 (ip), vehicle: saline) 2 of 6; (dose: 170.0 mg/kg/injection, schedule: Q01DX009 (ip), vehicle: saline) 0 of 6; (dose: 255.0 mg/kg/injection, schedule: Q01DX009 (ip), vehicle: saline) 0 of 6. The T/C (dose: 75.0 mg/kg/injection, schedule: Q04DX003 (ip), vehicle: saline) is 136 % of control.
Consider `CCOC(=O)CN1CCC2CC1c1c([nH]c3ccccc13)C21OCCO1` (stereo not drawn), for which the survivor count runs as follows: (dose: 4.0 mg/kg/injection, schedule: Q01DX009 (ip), vehicle: saline) 6 of 6; under setting [1], 6 of 6; under setting [2], 6 of 6; (dose: 100.0 mg/kg/injection, schedule: Q01DX009 (ip), vehicle: saline) 6 of 6.
For `O=C(O)C1=NN(c2cc(Cl)c(S(=O)(=O)O)cc2Cl)C(=O)C1`, under setting [6], the T/C is 130 % of control [5 of 6 alive].
For the compound `[NH-]C(CCC(N)=O)C(=O)O.[NH-]C(CCCN=C(N)N)C(=O)O.[Zn+2]` (stereo not drawn), the survivor count (dose: 200.0 mg/kg/injection, schedule: Q01DX005 (ip), vehicle: saline) is 1 of 5.
As for `CCC1CCCCN1C(=S)N/N=C(\C)c1ccccn1` (stereo not drawn), the T/C is 125 % of control (dose: 6.25 mg/kg/injection, schedule: Q04DX003 (ip), vehicle: saline with Tween-80); 133 % of control (dose: 25.0 mg/kg/injection, schedule: Q04DX003 (ip), vehicle: saline with Tween-80); 125 % of control (dose: 50.0 mg/kg/injection, schedule: Q04DX003 (ip), vehicle: saline with Tween-80). In addition, the survivor count (dose: 100.0 mg/kg/injection, schedule: Q04DX003 (ip), vehicle: saline with Tween-80) is listed as 0 of 6.
Regarding `C[C@@H]1C[C@@]2(C)[C@@H](CC[C@@H]3[C@@H]2CC[C@]2(C)[C@@H](OC4CCCCO4)CC[C@@H]32)CC1=O` (stereo partly drawn), the survivor count under setting [5] was 6 of 6 and the survivor count under setting [3] is on record as 6 of 6.
With `O=[N+]([O-])C(Cl)(Cl)C(Cl)(Cl)[N+](=O)[O-]`, the survivor count (dose: 10.0 mg/kg/injection, schedule: Q04DX003 (ip), vehicle: other) is reported as 4 of 6.
Regarding `Cc1cc(N)on1`, under setting [6], the survivor count is on record as 6 of 6.
In the case of `COc1cccnc1/C=N/NC(N)=S`, the T/C (dose: 6.0 mg/kg/injection, schedule: Q01DX009 (ip), vehicle: saline with Tween-80) is 144 % of control. The survivor count reads like this: (dose: 18.0 mg/kg/injection, schedule: Q01DX009 (ip), vehicle: saline with Tween-80) 1 of 6; (dose: 24.0 mg/kg/injection, schedule: Q01DX009 (ip), vehicle: saline with Tween-80) 1 of 6; (dose: 27.0 mg/kg/injection, schedule: Q01DX009 (ip), vehicle: saline with Tween-80) 0 of 6.
